This assay deals with T1, dengue virus RdRp (Dengue virus type 2, UniProt P29990).
T1 construct: dengue virus RdRp enzyme activity
Kind of assay: biochemical. The note with it: dengue virus RdRp enzyme activity; read-out: IC50, inhibitory target enzyme RdRp.

The text below walks through data of patent US12295967B2, “Pharmaceutical composition for prevention or treatment of flavivirus infection” (priority 2018, dated 2025).

Where a name gives a salt, the structure may show the parent alone.

Broadly, the IC50 is the point on the concentration scale where inhibition reaches its midpoint.

`CSc1ccc2c(c1)N(CCC1CCCCN1C)c1ccccc1S2` (stereo not shown) [Thioridazine HCl]: the IC50 came out at 28.1 µM.
